# Experimental data taken from patent US12569437B2, “Disease-site-specific liposomal formulation” (Osaka University, priority 2017, dated 2026).
# Key:
# [1] = Body weight and heart weight in rat myocardial ischemia model; type: in vivo; conditions: 3.0 mg/kg single i.v.; day 14
# Protocol: Dissection was performed after the completion of the echocardiography at day 14 after the administration of the test substance. For dissection, all of the blood was collected from the abdominal aorta, and the rats were euthanized under isoflurane anesthesia; thereafter, the heart was removed and weighed. After measuring the heart weight, the infarct area, including the left and right ventricles, was divided into three parts along the short axis.
# [2] = Body weight and heart and lung weights in J2N-k hamsters; type: in vivo, hamster; conditions: at dissection
# Protocol: Dissection was performed as follows. After all of the blood was collected from the abdominal aorta, and the hamsters were euthanized under isoflurane anesthesia, the heart and lungs were removed and weighed. After the weights thereof were measured, the removed parts, including the left and right ventricles, were divided into three parts; i.e., apical, middle, and basal parts, at intervals of about 2 mm along the short axis.
# Tables 26 and 27 show the body weight change at the time of grouping and at the time of dissection, and the weights of heart and lung at the time of dissection.
smiles,measurement,setting,value
"O=C(O)COc1cccc2c1CCC=C2CCO/N=C(\c1ccccc1)c1cccnc1 [Compound (A), ({5-[2-({[(1E)-phenyl(pyridin-3-yl)methylene]amino}oxy)ethyl]-7,8-dihydronaphthalen-1-yl}oxy)acetic acid]",Heart weight per 100 g of body weight,[1],0.3267 ± 0.0235 g
same,Total weight of isolated heart,[1],1.3312 ± 0.1827 g
same,Tissue weight per 100 g of the body weight (g) Heart,[2]; 3.0 mg/kg i.v. once/2 weeks,0.3475 ± 0.0165 g
same,Tissue weight per 100 g of the body weight (g) Heart,[2]; 3.0 mg/kg p.o. twice/day,0.3404 ± 0.0032 g
